These are yes or no findings as the source states them, for the method shown. In cells and extracts the contact can be indirect. Some entries that bind do so weakly or less than the wild type.

The chains behind the UniProt entries cited, without tags or fusion partners.
UniProt P31750: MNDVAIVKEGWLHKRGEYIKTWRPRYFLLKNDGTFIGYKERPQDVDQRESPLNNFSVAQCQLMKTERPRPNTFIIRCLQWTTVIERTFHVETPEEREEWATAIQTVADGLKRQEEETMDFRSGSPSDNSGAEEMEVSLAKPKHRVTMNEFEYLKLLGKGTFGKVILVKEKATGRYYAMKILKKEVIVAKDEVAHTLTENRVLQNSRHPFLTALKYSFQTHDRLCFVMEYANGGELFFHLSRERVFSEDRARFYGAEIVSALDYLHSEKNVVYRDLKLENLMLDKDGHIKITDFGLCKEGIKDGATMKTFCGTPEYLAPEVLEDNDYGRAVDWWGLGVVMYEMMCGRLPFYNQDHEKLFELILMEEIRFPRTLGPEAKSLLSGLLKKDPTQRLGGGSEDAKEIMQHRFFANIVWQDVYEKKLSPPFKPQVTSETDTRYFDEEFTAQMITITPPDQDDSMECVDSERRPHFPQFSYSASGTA
UniProt P63085: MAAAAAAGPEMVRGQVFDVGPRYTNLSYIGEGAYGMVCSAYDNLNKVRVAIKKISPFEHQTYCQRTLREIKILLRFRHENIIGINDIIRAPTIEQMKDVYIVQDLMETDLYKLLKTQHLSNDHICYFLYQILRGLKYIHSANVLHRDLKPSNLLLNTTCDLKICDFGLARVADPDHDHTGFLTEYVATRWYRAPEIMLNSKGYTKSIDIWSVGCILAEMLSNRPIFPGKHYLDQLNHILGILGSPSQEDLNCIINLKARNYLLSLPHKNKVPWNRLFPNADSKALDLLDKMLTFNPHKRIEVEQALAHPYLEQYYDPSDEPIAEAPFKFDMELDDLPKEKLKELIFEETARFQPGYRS
UniProt O35685: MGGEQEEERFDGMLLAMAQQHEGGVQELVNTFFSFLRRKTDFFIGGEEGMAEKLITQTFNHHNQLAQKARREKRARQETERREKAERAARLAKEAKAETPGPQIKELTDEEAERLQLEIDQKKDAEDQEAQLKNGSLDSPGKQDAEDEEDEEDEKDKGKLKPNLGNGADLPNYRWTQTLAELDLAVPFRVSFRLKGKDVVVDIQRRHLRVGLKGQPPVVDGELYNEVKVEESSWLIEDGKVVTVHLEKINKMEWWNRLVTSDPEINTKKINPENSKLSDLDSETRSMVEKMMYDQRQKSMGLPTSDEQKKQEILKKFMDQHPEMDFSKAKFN

Experimental findings from PMC3629208 are described below.

The target in test [1] is Akt (protein kinase B), Akt1 (mouse (endogenous in Neuro 2A)) (UniProt P31750). The test is described as follows: co-IP; anti-Akt antibody fixed on the beads by DSS, without DSP-crosslinking, Neuro 2A lysate (control or IGF-stimulated), western blot. (In western blotting, separated proteins are transferred to a membrane and probed.)
Test [2] has the same target. In words: co-IP; two-step crosslinking co-IP (DSS-fixed anti-Akt antibody, DSP-crosslinking of the bound complexes) from Neuro 2A lysate, western blot; cells with or without IGF-1 (10 ng/mL, 10 min); band intensity normalized to Akt level.

Regarding “extracellular regulated kinase-1 and -2 (ERK1/2) (from UniProt P63085 1-358)”, the binding entry in test [1] and in test [2] was “binds” throughout.
Turning to “nuclear distribution gene C (Nudc, also named nuclear migration gene C) (from UniProt O35685 1-332)”, in test [2], the binding result is on record as “binds”.
